# Measurements taken from US7393918B2, “Protein binding miniature proteins and uses thereof” (priority 2003, dated 2008).
# The chains behind the UniProt entries cited, without tags or fusion partners. Residues count along the entry.
# UniProt P62993, 156-215 limits assumed: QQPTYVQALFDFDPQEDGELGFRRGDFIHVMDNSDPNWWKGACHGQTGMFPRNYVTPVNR
# UniProt P62993, 1-58 limits assumed: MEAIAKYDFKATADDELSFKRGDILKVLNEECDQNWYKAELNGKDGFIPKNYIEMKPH
# UniProt Q9UI08, 1-115: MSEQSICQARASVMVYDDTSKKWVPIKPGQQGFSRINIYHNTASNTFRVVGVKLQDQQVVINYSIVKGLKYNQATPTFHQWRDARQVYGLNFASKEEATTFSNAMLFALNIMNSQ
# UniProt P50552, 1-115: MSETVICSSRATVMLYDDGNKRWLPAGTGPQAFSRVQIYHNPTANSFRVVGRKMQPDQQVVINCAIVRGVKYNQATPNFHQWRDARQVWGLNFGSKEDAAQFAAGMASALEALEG
# Part of at least one peptide drawing is inferred or uncertain, most often the ends.
# What was measured:
# [1] = target: T1, C-terminal SH3 domain of Grb-2 (Homo sapiens, UniProt P62993); experiment: interaction with SH3 domain; format: binding
# T1 construct: the N- or C- terminal SH3 domains of Grb-2
# Evl1-115 EVH1 domain = target: T2, Evl1-115 EVH1 domain (Homo sapiens, UniProt Q9UI08); experiment: tryptophan fluorescence perturbation analysis of EVH1 domain binding
# T2 construct: and especially to Evl1-115 (Krel>120)
# [2] = circular dichroism temperature dependence of mean residue ellipticity at 222 nm; format: physicochemical; details: CD, ΘMRE at 222 nm; reversible, moderately cooperative
# Evl1-115 = target: T3, Evl1-115 (Homo sapiens, UniProt Q9UI08); experiment: fluorescence polarization binding with pGolemi^Flu; details: fluorescence polarization analysis
# T3 construct: and especially to Evl1-115 (Krel>120)
# VASP1-115 EVH1 domain = VASP1-115 EVH1 domain (Homo sapiens, UniProt P50552); experiment: tryptophan fluorescence perturbation analysis of EVH1 domain binding
# L. monocytogenes = L. monocytogenes actin-based motility in Xenopus laevis egg cytoplasmic extracts; set-up: species or system Listeria monocytogenes; details: 10 or 27 μM
# Procedure: Errors bars show the intraquartile range.
# L. monocytogenes motility in mammalian cells and extracts is due to interactions between the 639-residue bacterial protein ActA and host proteins that recruit and activate actin polymerization. Addition of 10 μM ActA11 decreased the median speed of L. monocytogenes by 89%, consistent with previous work. […] Further experimentation will be required to fully understand the molecular events that result in altered motility.
# VASP1-115 = VASP1-115 (Homo sapiens, UniProt P50552); experiment: fluorescence polarization binding with pGolemi^Flu; details: fluorescence polarization analysis
# [3] = target: T4, N-terminal SH3 domain of Grb-2 (Homo sapiens, UniProt P62993); experiment: interaction with SH3 domain; format: binding
# T4 construct: the N- or C- terminal SH3 domains of Grb-2
smiles,measurement,setting,value
CC[C@H](C)[C@H](NC(=O)[C@H](CC(C)C)NC(=O)[C@H](CC(=O)O)NC(=O)[C@H](CCC(=O)O)NC(=O)[C@@H](NC(=O)[C@@H]1CCCN1C(=O)[C@H](C)NC(=O)[C@H](CCC(=O)O)NC(=O)[C@H](CCC(=O)O)NC(=O)CNC(=O)[C@@H]1CCCN1C(=O)[C@@H]1CCCN1C(=O)[C@@H](NC(=O)[C@@H]1CCCN1C(=O)[C@@H]1CCCN1C(=O)[C@H](Cc1ccccc1)NC(=O)[C@@H]1CCCN1)[C@@H](C)O)C(C)C)C(=O)N[C@@H](CCCNC(=N)N)C(=O)N[C@@H](Cc1ccccc1)C(=O)N[C@@H](Cc1ccc(O)cc1)C(=O)N[C@@H](CC(N)=O)C(=O)N[C@@H](CC(=O)O)C(=O)N[C@@H](CC(C)C)C(=O)N[C@@H](CCC(N)=O)C(=O)N[C@@H](CCC(N)=O)C(=O)N[C@@H](Cc1ccc(O)cc1)C(=O)N[C@@H](CC(C)C)C(=O)N[C@@H](CC(N)=O)C(=O)N[C@H](C(=O)N[C@H](C(=O)O)C(C)C)C(C)C [pGolemi],interaction with C-terminal SH3 domain of Grb-2,[1],no interaction was detected
same,"Krel, Mena1-112 preferred to Evl1-115",Evl1-115 EVH1 domain,> 120
same,Tm of melting transition,[2],50 °C
same,"Krel, Mena1-112 versus Evl1-115",Evl1-115,> 345
same,"Krel, Mena1-112 preferred to VASP1-115",VASP1-115 EVH1 domain,20
same,decrease of median speed of L. monocytogenes,L. monocytogenes,68%
same,speed variation and actin tail formation of L. monocytogenes,L. monocytogenes,extreme speed variations and discontinuous tail formation at all times
same,"Krel, Mena1-112 versus VASP1-115",VASP1-115,66
same,interaction with N-terminal SH3 domain of Grb-2,[3],no interaction was detected
